Source: patent publication EP2014281A1, “Use of inhibitors of sirtuins and/or ampk for the preparation of a medicament for the treatment of polyalanine diseases” (INSTITUT NATIONAL DE LA SANTE ET DE LA RECHERCHE MEDICALE …, priority 2007, dated 2009)

Tested on: PABPN1
Assay: Transgene expression by quantitative RT-PCR
Type: in vivo, C. elegans
Conditions: PABPN1-A13 animals, vs untreated

SMILES: CCCC(=O)[O-].[Na+] [sodium butyrate]
- Transgene expression level (ΔCt) (33 µM drug): 3.6 ± 0.1

SMILES: CC(NC(=O)c1ccccc1/N=C/c1c(O)ccc2ccccc12)c1ccccc1 (stereo not shown) [sirtinol, 2-[(2-Hydroxynaphthalen-1-yl-methylene)amino]-N-(1-phenethyl)benzamide]
- Transgene expression level (ΔCt) (3.7µM drug): 5.2 ± 0.5

SMILES: O=C1CCc2c(ccc3ccccc23)O1 [splitomicin, 1,2-Dihydro-3H-naphtho[2,1-b]pyran-3-one]
- Transgene expression level (ΔCt) (33 µM drug): 4.0 ± 0.3

SMILES: Oc1ccc(C=Cc2cc(O)cc(O)c2)cc1 [resveratrol]
- Transgene expression level (ΔCt) (33 µM drug): 5.2 ± 0.2
